According to PubChem BioAssay AID488854 (National Center for Advancing Translational Sciences (NCATS), 2010):
The inconclusive results got no clear call from the source; some entries with a clear call stand among them for comparison. Potencies of inconclusive entries are doubtful fits and often do not repeat. The source made the active and inactive calls. The call rests on the fitted dose curve; in most records, active means well fitted activation curve with a large enough effect; inconclusive means small, poorly fitted or top-dose-only effect; inactive means no such curve, though single readings can be large or run the other way.

Sequences of proteins named here, by UniProt entry; tags and fusion partners are left off.
UniProt P04062, whole entry N409S: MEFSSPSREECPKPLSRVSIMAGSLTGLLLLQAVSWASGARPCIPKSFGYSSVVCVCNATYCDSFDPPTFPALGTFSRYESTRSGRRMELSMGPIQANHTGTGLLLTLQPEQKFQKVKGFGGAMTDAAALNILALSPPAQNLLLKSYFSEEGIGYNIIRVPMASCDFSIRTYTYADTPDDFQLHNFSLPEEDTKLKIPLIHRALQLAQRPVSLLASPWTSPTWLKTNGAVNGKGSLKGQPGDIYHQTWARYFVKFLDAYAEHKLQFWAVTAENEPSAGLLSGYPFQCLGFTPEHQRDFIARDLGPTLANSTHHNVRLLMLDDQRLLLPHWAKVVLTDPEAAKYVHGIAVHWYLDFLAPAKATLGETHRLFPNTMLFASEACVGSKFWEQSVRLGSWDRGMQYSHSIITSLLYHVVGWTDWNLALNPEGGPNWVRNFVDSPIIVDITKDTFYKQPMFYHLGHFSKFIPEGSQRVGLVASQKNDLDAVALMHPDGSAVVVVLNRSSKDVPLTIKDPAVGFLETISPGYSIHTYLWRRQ

The compounds below were run against Lysosomal acid glucosylceramidase (Homo sapiens) (UniProt P04062) (assay: qHTS Assay for Inhibitors and Activators of N370S glucocerebrosidase as a Potential Chaperone Treatment of Gaucher Disease: Confirmation for Probe SAR). Details: N370S GC spleen homogenate, 4MU-glucoside fluorescence; series mostly up to 57.5 µM; activity change, positive = activation: at the top concentration.
Excerpt: NIH Chemical Genomics Center [NCGC] NIH Molecular Libraries Probe Production Centers Network [MLPCN] MLPCN Grant: MH086442-01 Assay Submitter (PI): Wei Zheng Glucocerebrosidase (GC) catalyzes the hydrolysis of beta-glucocerebroside to glucose and ceramide in lysosomes. Mutations in the glucocerebrosidase gene result in Gaucher disease, an autosomal recessive lysosomal storage disorder. Many of the mutations encountered in patients with Gaucher disease are missense alterations that may cause misfolding, decreased stability and/or mistrafficking of this lysosomal protein. […] These inhibitors include iminosugar analogs and three non-iminosugar inhibitors identified from a previous HTS of 62,000 compounds with the wild type recombinant enzyme. However, the enhancement of enzyme activity by the chaperone action of an enzyme inhibitor must be balanced against the direct inhibition of the enzyme. An enzyme activator could also function as a chaperone by binding to the enzyme and helping to correct its misfolding and mistrafficking. While activators for GC have not yet been identified, they may have better therapeutic potential than inhibitors. Therefore the discovery and development of chemical activators may provide a new strategy for the chaperone therapy. We have optimized a new assay using N370S mutant GC derived from the spleen of a Gaucher patient. […] In addition, the MLPCN compound library has expanded, which increases the chance of finding new and better probes.
NCGC Assay Protocol Summary: This is a fluorogenic enzyme assay with 4-methylumbelliferyl-beta-D-glucopyranoside as the substrate and N370S glucocerebrosidase from human spleen homogenate as the enzyme preparation. Upon the hydrolysis of this fluorogenic substrate, the resulting product, […] which can be detected by a standard fluorescence plate reader. Data were normalized to the controls for basal activity (without enzyme) and 100% activity (with enzyme). The AC50 values were determined from concentration-response data modeled with the standard Hill equation. Assay buffer: 50 mM citric acid (titrated with potassium phosphate to pH 5.0), 100 mM potassium chloride, 10 mM sodium chloride, 1 mM magnesium chloride, 0.01% Tween-20. 1536-well assay protocol: (1) Add 2 ul/well of spleen homogenate (27 ug final) (2) Add 23 nL compounds in DMSO solution. The final titration was 0.5 nM to 58 uM. (3) Add 2 ul of substrate (1 mM final) (4) Incubate at 37C for 40 min. (5) Add 2 ul stop solution (1M NaOH and 1M Glycine mixture, pH 10) (6) Detect the assay plate in a ViewLux plate reader (PerkinElmer) with Ex=365 nm and Em=440nm. Keywords: Glucocerebrosidase, beta-glucosidase, Gaucher Disease, pharmacological chaperone, chaperone therapy, high throughput screening, glucocerebrosidase inhibitor, MLSMR, MLSCN, NIH Roadmap, qHTS and NCGC

Row | SMILES | Potency | activity change, positive = activation
1 | Cc1cc(C)n2ncc(C(=O)Nc3ccc(C#N)cc3)c2n1 | inconclusive: 41.1 µM [activator, partial curve] | 
2 | COc1cc(NC(=O)c2cnn3c(C)cc(C)nc23)cc(OC)c1OC | inconclusive: 81.9 µM [activator, partial curve] | 
3 | C=C1C=C(C(F)F)n2ncc(C(=O)Nc3ccc(C(C)CC)cc3)c2N1 (stereo unspecified) | active: 2.51 µM | 
4 | O=C(Nc1cnn(Cc2ccc(F)cc2)c1)c1cnn2c(C(F)F)cc(-c3ccccc3)nc12 | inconclusive: 3.26 µM [activator, full curve] | 
5 | Cc1cc(C)n2ncc(C(=O)N3CCCC3)c2n1 |  | inactive: 2.99%
6 | Cc1cc(C)n2ncc(C(=O)Nc3ccc(C(C)(C)C)cc3)c2n1 | inconclusive: 2.31 µM [activator, full curve] | 
7 | Cc1ccc(NC(=O)c2cnn3c(-c4ccccc4)cc(C)nc23)cc1 | inconclusive: 206 µM [activator, single point] | 
8 | COc1ccc(NC(=O)c2cnn3c(C)cc(C)nc23)cc1OC | inconclusive: 130 µM [activator, partial curve] | 
9 | OC[C@H]1CNC[C@@H](O)[C@@H]1O |  | inactive: -96.6%
10 | Cc1cc(C)n2ncc(C(=O)Nc3ccc(Cl)c(Cl)c3)c2n1 | active: 3.66 µM | 
11 | CC(=O)c1ccc(NC(=O)c2cnn3c(C)cc(C)nc23)cc1 | inconclusive: 51.7 µM [activator, partial curve] | 

Part of the list above, set out differently:
COc1ccc(NC(=O)c2cnn3c(C)cc(C)nc23)cc1OC
  Potency: inconclusive: 130 µM [activator, partial curve]
CC(=O)c1ccc(NC(=O)c2cnn3c(C)cc(C)nc23)cc1
  Potency: inconclusive: 51.7 µM [activator, partial curve]
